Test results: the supplement of paper PMC12067093, “Discovery and optimisation of a covalent ligand for TRIM25 and its application to targeted protein ubiquitination” (Chemical Science, 2025)
Some of the results follow.

Compound: CC1Cc2ccccc2N1C(=O)C1CCCN(C1)C(=O)CCl (mixture of isomers) [TRIM25 ligand 11 (diastereomer mixture)]
Assay: probe-labelled cysteine peptide fold change vs DMSO (competition) (log2 fold change); higher = less target engagement (more negative = stronger competition)
Settings: THP-1, incubation time: 4 h
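Also: competitive chemoproteomic profiling in live THP-1 cells with an iodoacetamide desthiobiotin (IA-DTB) probe, comparing probe-labelled peptide intensities in compound-treated cells against DMSO-treated controls.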

Row | Target | probe-labelled cysteine peptide fold change (10 µM) | probe-labelled cysteine peptide fold change (50 µM)
1 | ZC3H14_Q6PJT7_628_AFPNCK (UniProt Q6PJT7) | -0.203 | -0.201
2 | XRN2_Q9H0D6_21_KYPSIIVNCVEEKPK (UniProt Q9H0D6) | 0.147 | 0.023
3 | ZC3H14_Q6PJT7_641_CLFVHPNCK (UniProt Q6PJT7) | -0.091 | -0.0988
4 | XPO4_Q9C0E2_1149_SLEEFMANVGGLLCVK (UniProt Q9C0E2) | -0.0589 | 0.185
5 | YWHAG_P61981_194_LGLALNYSVFYYEIQNAPEQACHLAK (UniProt P61981) | 0.0779 | 0.178
6 | YES1_P07947_42_YRPENTPEPVSTSVSHYGAEPTTVSPCPSSSAK (UniProt P07947) | -0.0245 | -0.239
7 | XRCC5_P13010_157_KCDISLQFFLPFSLGK (UniProt P13010) | -0.0322 | 0.0523
8 | ZC3H15_Q8WU90_105_SVVCAFFK (UniProt Q8WU90) | -0.0728 | -0.107
9 | XRCC5_P13010_157_CDISLQFFLPFSLGKEDGSGDRGDGPFR (UniProt P13010) | -0.43 | -0.0205
10 | XPNPEP3_Q9NQH7_492_IEDDVVVTQDSPLILSADCPK (UniProt Q9NQH7) | -0.0184 | -0.0977
11 | YWHAZ_P63104_25_YDDMAACMK (UniProt P63104) | -0.0733 | -0.144
12 | YEATS2_Q9ULM3_1173_SEDASCFSAK (UniProt Q9ULM3) | 0.194 | 0.162
13 | XRN2_Q9H0D6_736_FSLDEEAILPDQIVCSPVPMLR (UniProt Q9H0D6) | 0.234 | 0.0197
14 | XPO7_Q9UIA9_525_VSFASTDEQDAMDGELVCR (UniProt Q9UIA9) | 0.233 | 0.397
15 | ZC3H12B_Q5HYM0_361_KQPCPYGK (UniProt Q5HYM0) | -0.119 | -0.0946
16 | ZCCHC4_Q9H5U6_19_NGFEAVEAEGSAGCR (UniProt Q9H5U6) | -0.0203 | -0.109
17 | YY1AP1_Q9H869_734_QCQEGLSENSAYR (UniProt Q9H869) | -0.00384 | 0.0743
18 | YAE1_Q9NRH1_143_SITPPSHVVDLLDSIEDMDLCHVVPAEK (UniProt Q9NRH1) | 0.00827 | -0.115
19 | YARS_P54577_67_AGCEVTILFADLHAYLDNMK (UniProt P54577) | 0.171 | 0.25
20 | YY1_P25490_385_IHTGDRPYVCPFDGCNKK (UniProt P25490) | -0.226 | -0.103

Row | Target | probe-labelled cysteine peptide fold change (10 µM) | probe-labelled cysteine peptide fold change (50 µM)
21 | XPO4_Q9C0E2_54_SPFAVCK (UniProt Q9C0E2) | 0.0641 | 0.0485
22 | YWHAQ_P27348_134_YLAEVACGDDRK (UniProt P27348) | -0.0228 | -0.0265
23 | ZDHHC21_Q8IVQ6_109_CGHCVR (UniProt Q8IVQ6) | -0.0184 | 0.123
24 | ZC3HAV1L_Q96H79_99+108_GECQACDQLHFCR (UniProt Q96H79) | -0.032 | 0.0459
25 | YWHAQ_P27348_25_YDDMATCMK (UniProt P27348) | -0.119 | -0.263
26 | ZC3H7A_Q8IWR0_775_QMPLQFDLCNHIASGKK (UniProt Q8IWR0) | -0.187 | -0.181
27 | XPO5_Q9HAV4_1131_DSLDQFDCK (UniProt Q9HAV4) | -0.113 | -0.283
28 | XPO1_O14980_498_NLNTLCWAIGSISGAMHEEDEKR (UniProt O14980) | 0.0331 | -0.0738
29 | ZC3HAV1_Q7Z2W4_96_CNYSQSER (UniProt Q7Z2W4) | -0.127 | -0.0692
30 | XRCC5_P13010_418_HNYECLVYVQLPFMEDLR (UniProt P13010) | 0.0597 | 0.0809
31 | ZBED4_O75132_582_VVCLHCGR (UniProt O75132) | -0.126 | -0.0917
32 | ZC3H7B_Q9UGR2_617_QFQEHFQFDVCR (UniProt Q9UGR2) | 0.176 | 0.249
33 | ZC3HAV1L_Q96H79_169_ILLLQNDPCLLPEVCLLYNK (UniProt Q96H79) | 0.302 | 0.324
34 | ZBTB43_O43298_450_HVTSCTK (UniProt O43298) | 0.0113 | -0.159
35 | ZCCHC3_Q9NUD5_375_GIVCNLCGK (UniProt Q9NUD5) | -0.0111 | 0.0681
36 | YWHAQ_P27348_94_SICTTVLELLDK (UniProt P27348) | -0.0784 | 0.132
37 | YEATS2_Q9ULM3_565_QEDSLFASMPPLCPIGSHPK (UniProt Q9ULM3) | -0.00711 | -0.175
38 | YARS_P54577_519_LGSISCK (UniProt P54577) | 0.0269 | 0.0139
39 | YJU2_Q9BW85_275_AKADPDCSNGQPQAAPTPGAPQNR (UniProt Q9BW85) | -0.0979 | -0.295

Record cards (already shown). Values in the order: probe-labelled cysteine peptide fold change (10 µM) | probe-labelled cysteine peptide fold change (50 µM)
YWHAQ_P27348_134_YLAEVACGDDRK (UniProt P27348) in the list: -0.0228 | -0.0265
YWHAQ_P27348_94_SICTTVLELLDK (UniProt P27348) in the list: -0.0784 | 0.132
